The text below walks through data of PMC4243950, “Characterization of the accessory protein ClpT1 from Arabidopsis thaliana: oligomerization status and interaction with Hsp100 chaperones” (BMC Plant Biology, 2014).

Results are given in words; binding and its absence hold for the method and conditions named.

For the assay, the target named is E. coli ferredoxin (E. coli) (UniProt P0A9R4). Kind of assay: condition: 25 μM protein, up to 50-fold molar excess of EGS; cross-linking; EGS at 10, 20, 30 and 50-fold molar excess, 25 μM protein, 50 mM Hepes pH 7.5, 100 mM NaCl, 30 min at room temperature; SDS-PAGE with Coomassie staining; both purified.

B1: E. coli ferredoxin (protein, UniProt P0A9R4 1-111)
chain: MPKIVILPHQDLCPDGAVLEANSGETILDAALRNGIEIEHACEKSCACTTCHCIVREGFDSLPESSEQEDDMLDKAWGLEPESRLSCQARVTDEDLVVEIPRYTINHAREH
With B1, the binding result is reported as “no binding”.
